The values below come from the supplement of paper PMC5770031.

The other results are listed elsewhere or left out. This data set is noisy: repeats of one test often differ as much as different tests do.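 ATM8/balancer (normal ATM) heterozygous flies were crossed on treated food; parents laid eggs 5–6 days, offspring developed ~12 days, so parents and larvae ingested compound. Readout: fraction of emerged adults homozygous for ATM8 versus 2% DMSO controls. Compounds were neutral at 10–20% homozygotes, harmful below 10%, helpful above 20%.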 Numbered stars: 1 amine (or outer) side, 2 acyl side, 3 side chain; on linkers, the order of the positions; unused ones are H or OH. Bridge positions count the residues as written; N and C are the ends. Square brackets hold non-standard residues; d marks the D form. Peptide text beside a SMILES is read from it. I, II: the chains in the order shown. Actinocin(9to1) = Cc1c2oc3c(C)ccc(C(=O)[*:1])c3nc-2c(C(=O)[*:2])c(N)c1=O; NMeV = CN[C@H](C(=O)O)C(C)C; Sar = CNCC(=O)O

The experiment concerns Drosophila melanogaster ATM8 (temperature-sensitive ATM allele). Nature of the experiment: fraction of eclosed F1 progeny that are homozygous ATM8 (rescue of developmental lethality); higher = more rescue of ATM8 developmental lethality; extreme values may be limits of the assay. The settings on record: compound concentration applied to food 0.2 mM; 21 °C.
Turning to `CC(=O)OC(C)C[N+](C)(C)C` (configuration not stated), the “fraction of eclosed F1 progeny that are homozygous ATM8” value (“fraction” below) was 0.111. To `CCCCOc1ccc(CC(=O)NO)cc1` belongs 0.135; to `CC(C)c1cccc(C(C)C)c1O`, 0.2; to `C=CCc1ccccc1OCC(O)CNC(C)C` (configuration not stated), 0.0816. To `Oc1c(Cl)cc(Cl)cc1Sc1cc(Cl)cc(Cl)c1O` belongs 0.103; to `COc1ccc2nc3cc(Cl)ccc3c(Nc3cc(CN4CCCC4)c(O)c(CN4CCCC4)c3)c2n1`, 0.167; to `CC(C)c1cc2c(c(O)c1O)[C@@]1(C(=O)O)CCCC(C)(C)[C@@H]1CC2`, 0.093. With `Nc1nc(=O)c2c([nH]1)NCC(CNc1ccc(C(=O)N[C@@H](CCC(=O)O)C(=O)O)cc1)N2C=O` (some centres not stated), the “fraction” value was determined as 0.0606.

On to `COc1ccc2c(c1)OCC(Cc1ccc(OC)c(OC)c1)C2=O` (configuration not stated), for which the “fraction” value was 0.231. To `CCC(C)(C)c1ccc(CC(C)CN2C[C@@H](C)O[C@@H](C)C2)cc1` (some centres not stated) belongs 0; to `O=C(O)CC[N+](=O)[O-]`, 0.211. To `COc1ccc([C@H]2Oc3cc(OC)cc(OC)c3C[C@H]2O)cc1` belongs 0.0882; to `COC1=CC(=O)O[C@@H](/C=C/c2ccccc2)C1`, 0.171.

`CC[C@]12CCCN3CCc4c(n(c5ccccc45)[C@@](O)(C(=O)OC)C1)[C@@H]32`: the “fraction” value came out at 0.0556. For `Oc1ccc2c3c1O[C@H]1[C@@H](O)CC[C@@]4(O)[C@@H](C2)N(CC2CCC2)CC[C@]314` the value was 0.05. On to `CC(CCc1ccc(O)cc1)NCCc1ccc(O)c(O)c1` (configuration not stated), for which the “fraction” value was 0.2. For `O=c1cc(-c2ccccc2)oc2ccc(O)cc12` the value was 0.123; for `CCOc1nc2cccc(C(=O)OC(C)OC(=O)OC3CCCCC3)c2n1Cc1ccc(-c2ccccc2-c2nn[nH]n2)cc1` (configuration not stated), 0.359. To `CN1CCc2cc3c(cc2[C@H]1[C@@H]1OC(=O)c2c1ccc1c2OCO1)OCO3` belongs 0.214; to `COC(=O)/C=C/c1ccc(O)c(O)c1`, 0.22; to `Nc1ccc(S(N)(=O)=O)cc1`, 0.1.

Take `Nc1ncnc2c1ncn2[C@H]1C[C@H](O)[C@@H](CO)O1`: the “fraction” value came out at 0.258. For `COc1cc(C)c2c(=O)cc(-c3ccccc3)oc2c1` the value was 0.125. To `CC(C)(Oc1ccc(C2CC2(Cl)Cl)cc1)C(=O)O` (configuration not stated) belongs 0.225; to `CC1=C(C(=O)O)N2C(=O)[C@@H](NC(=O)[C@H](N)c3ccc(O)cc3)[C@H]2SC1`, 0.0526. For `CC1=CCCC(C)=CCC(C)(C)C=CC1` [HUMULENE (alpha)] the value was 0.143. Take `O=C1C2CC=CCC2C(=O)N1SC(Cl)(Cl)Cl` (configuration not stated): the “fraction” value came out at 0.116. To `COC1=CC(OC)=C(C)C(=O)C1=O` belongs 0.0213. For `CCCCCCCCCCCCCCCC[N+](C)(C)C` the value was 0.233; for `NC(=O)C1(N2CCCCC2)CCN(CCCC(=O)c2ccc(F)cc2)CC1`, 0.0423. To `CNC1(C)C2CCC(C2)C1(C)C` (configuration not stated) belongs 0.111; to `C=C(NC(=O)C(=C)NC(=O)c1csc(C2=N[C@@H]3c4csc(n4)[C@H]4NC(=O)c5csc(n5)[C@H]([C@](C)(O)[C@@H](C)O)NC(=O)[C@H]5CSC(=N5)/C(=C/C)NC(=O)[C@H]([C@@H](C)O)NC(=O)c5csc(n5)[C@]3(CC2)NC(=O)[C@H](C)NC(=O)C(=C)NC(=O)[C@H](C)NC(=O)[C@H]([C@@H](C)CC)N[C@@H]2C=Cc3c([C@H](C)O)cc(nc3[C@H]2O)C(=O)O[C@@H]4C)n1)C(N)=O`, 0.25; to `C[C@@H]1CC2C3C[C@H](F)C4=CC(=O)C=C[C@]4(C)[C@@]3(F)[C@@H](O)C[C@]2(C)[C@@]1(O)C(=O)COC(=O)C(C)(C)C` (some centres not stated), 0.234. On to `O=C(O)CCc1nc2ccccc2[nH]1`, for which the “fraction” value is 0.286. For `CN1C[C@H](CNC(=O)OCc2ccccc2)C[C@@H]2c3cccc4c3c(cn4C)C[C@H]21` the value was 0.13; for `Nc1nccs1`, 0.0541.

Turning to `NC(=O)c1cccnc1`, the “fraction” value was 0.138. To `CCCc1nc(C(C)(C)O)c(C(=O)OCc2oc(=O)oc2C)n1Cc1ccc(-c2ccccc2-c2nnn[nH]2)cc1` belongs 0.184. To `Cn1c(=O)c2c(ncn2CC(O)CO)n(C)c1=O` (configuration not stated) belongs 0.0769; to `NC(=O)c1cc[n+](CC2=C(C(=O)[O-])N3C(=O)[C@@H](NC(=O)Cc4cccs4)[C@H]3SC2)cc1`, 0.125. To `Cc1nccn1CC1CCc2c(c3ccccc3n2C)C1=O` (configuration not stated) belongs 0.05. In the case of `O=C1C(O)=C(O)C(=O)C(O)=C1O`, the “fraction” value was determined as 0.0909. For the compound `COc1ccc2c(c1)c(CC(=O)OCC(=O)O)c(C)n2C(=O)c1ccc(Cl)cc1`, the “fraction” value came out at 0.135. To `Cc1c2oc3c(C)ccc(C(=O)N[C@@H]4C(=O)N[C@H](C(C)C)C(=O)N5CCC[C@H]5C(=O)N(C)CC(=O)N(C)[C@@H](C(C)C)C(=O)O[C@@H]4C)c3nc-2c(C(=O)N[C@@H]2C(=O)N[C@H](C(C)C)C(=O)N3CCC[C@H]3C(=O)N(C)CC(=O)N(C)[C@@H](C(C)C)C(=O)O[C@@H]2C)c(N)c1=O` (I: T[dV]P[Sar][NMeV] / II: T[dV]P[Sar][NMeV]; ester I:1-I:C, II:1-II:C; linker I:N-II:N via Actinocin(9to1)) belongs 0. On to `O=C(O)CF`, for which the “fraction” value was 0.25. To `COc1ccc2c(c1)OC[C@@H](Cc1ccc(OC)c(OC)c1)[C@@H]2O` belongs 0.167. With `CC1(C)C(=O)[C@@H]2O[C@@H]2[C@@]2(C)C1C[C@@H](O)[C@]1(C)C2CC[C@@]2(C)[C@H](c3ccoc3)OC(=O)C3OC321` (stereo partly drawn) [1,2alpha-EPOXYDEACETOXYDIHYDROGEDUNIN], the “fraction” value turned out to be 0.17.
